Results reported in the supplement of paper PMC10470496.
Counter-ions that a name gives are not always drawn. This is one part of the list. Single values are uncertain, as repeats are few or missing.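 Three clinical Candida auris isolates (clades III, IV and I) from the CDC resistance isolate bank were grown in RPMI-1640 at 35°C. Growth was background-corrected OD600 relative to same-plate vehicle-only wells. Hits required over 50% inhibition in at least two strains and a plate-corrected B-score above 0.1.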

How the values were obtained:
Experiment in all cases: growth relative to vehicle control (OD600 ratio) (fraction); higher = less inhibition
Conditions in all cases: 24 h
C. auris AR-384 = tested on: C. auris AR-384
C. auris AR-386 = tested on: C. auris AR-386
C. auris AR-387 = tested on: C. auris AR-387

| Structure (SMILES) | growth (C. auris AR-384; 1 µM) | growth (C. auris AR-384; 10 µM) | growth (C. auris AR-386; 1 µM) | growth (C. auris AR-386; 10 µM) | growth (C. auris AR-387; 1 µM) | growth (C. auris AR-387; 10 µM) |
| --- | --- | --- | --- | --- | --- | --- |
| COc1cc([C@@H]2c3cc4c(cc3[C@@H](O[C@@H]3O[C@@H]5CO[C@@H](c6cccs6)O[C@H]5[C@H](O)[C@H]3O)[C@H]3COC(=O)[C@H]23)OCO4)cc(OC)c1O [Teniposide] | 0.78 | 0.77 | 0.68 | 0.66 | 0.66 | 0.71 |
| COc1ncnc(NS(=O)(=O)c2ccc(N)cc2)c1OC [Sulfadoxine] | 0.74 | 0.6 | 0.77 | 0.97 | 0.7 | 0.55 |
| COc1ccc(CCN(C)CCCC(C#N)(c2ccc(OC)c(OC)c2)C(C)C)cc1OC (stereo unspecified) [Verapamil HCl] | 0.93 | 0.8 | 0.79 | 0.98 | 0.9 | 0.92 |
| Cc1ccnc(NS(=O)(=O)c2ccc(N)cc2)n1 [Sulfamerazine] | 0.73 | 0.73 | 1.29 | 0.65 | 0.91 | 0.75 |
| C[C@@H]1O[C@@H]1P(=O)(O)O [Fosfomycin Tromethamine] | 1.11 | 1.16 | 0.97 | 1.04 | 0.82 | 0.97 |
| CC/C(=C(/CC)c1ccc(O)cc1)c1ccc(O)cc1 [Diethylstilbestrol] | 0.84 | 0.82 | 0.98 | 0.95 | 0.97 | 0.87 |
| CC(=O)Nc1cccc(-n2c(=O)n(C3CC3)c(=O)c3c(Nc4ccc(I)cc4F)n(C)c(=O)c(C)c32)c1 | 0.89 | 0.78 | 1.32 | 0.97 | 0.66 | 0.6 |
| COc1ccccc1N1CCN(CCCNc2cc(=O)n(C)c(=O)n2C)CC1 [Urapidil HCl] | 0.78 | 1.03 | 1.05 | 1.01 | 1.39 | 1.13 |
| N[C@@H]1CONC1=O [D-Cycloserine] | 1.32 | 1.33 | 1.15 | 1.19 | 1.38 | 1.19 |
| CCCNS(=O)(=O)Nc1ncnc(OCCOc2ncc(Br)cn2)c1-c1ccc(Br)cc1 [Macitentan] | 0.87 | 0.7 | 0.83 | 0.83 | 0.73 | 0.67 |
| CN(C)/N=N/c1[nH]cnc1C(N)=O [Dacarbazine] | 1.23 | -0.01 | 0.65 | 0.83 | 0.82 | 1.08 |
| CC(=O)NC(CC(C)C)C(=O)O (stereo unspecified) [Acetylleucine] | 0.78 | 0.71 | 0.85 | 1.06 | 0.75 | 0.89 |
| C=C1CC[C@H](O)C/C1=C/C=C1\CCC[C@]2(C)[C@@H]([C@H](C)/C=C/[C@H](C)C(C)C)CC[C@@H]12 [Vitamin D2] | 0.89 | 0.9 | 0.56 | 0.71 | 0.64 | 0.76 |
| NC(CO)(CO)CO [Trometamol] | 0.72 | 0.75 | 0.74 | 0.72 | 0.53 | 0.77 |
| CN1CCCCC1CCN1c2ccccc2Sc2ccc([S+](C)[O-])cc21 (stereo unspecified) [Mesoridazine Besylate] | 0.96 | 0.81 | 0.77 | 0.78 | 0.77 | 1 |
| CC[C@@H](CO)NCCN[C@@H](CC)CO [Ethambutol 2HCl] | 1.02 | 1.05 | 1.09 | 1.13 | 1.09 | 1.12 |
| CC(C)NCC(O)COc1cccc2ccccc12 (stereo unspecified) [Propranolol HCl] | 0.81 | 0.66 | 0.98 | 0.6 | 0.71 | 0.67 |
| CC1(C)S[C@@H]2[C@H](NC(=O)[C@H](N)c3ccc(O)cc3)C(=O)N2[C@H]1C(=O)O [Amoxicillin] | 1.27 | 0.65 | 1 | 0.78 | 0.9 | 0.77 |
| CCOC(=O)OC(C)OC1=C(C(=O)Nc2ccccn2)N(C)S(=O)(=O)c2ccccc21 (stereo unspecified) [Ampiroxicam] | 0.8 | 0.88 | 0.67 | 0.79 | 0.76 | 0.94 |
| COC(=O)C1=C(C#N)NC(C)=C(C(=O)OC(C)C)C1c1cccc([N+](=O)[O-])c1 (stereo unspecified) [Nilvadipine] | 0.92 | 1.07 | 0.81 | 0.87 | 1.02 | 0.87 |
| O=C(O)Cc1cc(I)c(Oc2ccc(O)c(I)c2)c(I)c1 [Tiratricol] | 0.8 | 0.92 | 1.01 | 1.15 | 0.73 | 0.95 |
| C[C@@H](O[C@H]1OCCN(Cc2nn(P(=O)(O)O)c(=O)[nH]2)[C@H]1c1ccc(F)cc1)c1cc(C(F)(F)F)cc(C(F)(F)F)c1 [Fosaprepitant dimeglumine salt] | 0.86 | 0.88 | 0.85 | 1.47 | 0.98 | 0.94 |
| COC(=O)N(C)c1c(N)nc(-c2nn(Cc3ccccc3F)c3ncccc23)nc1N [Riociguat (BAY 63-2521)] | 0.73 | 0.67 | 0.72 | 0.68 | 0.68 | 0.65 |

Record cards, as listed above. Values in the order: growth (C. auris AR-384; 1 µM)	growth (C. auris AR-384; 10 µM)	growth (C. auris AR-386; 1 µM)	growth (C. auris AR-386; 10 µM)	growth (C. auris AR-387; 1 µM)	growth (C. auris AR-387; 10 µM)
`COc1ncnc(NS(=O)(=O)c2ccc(N)cc2)c1OC` [Sulfadoxine] as listed: 0.74	0.6	0.77	0.97	0.7	0.55
`CC/C(=C(/CC)c1ccc(O)cc1)c1ccc(O)cc1` [Diethylstilbestrol] as listed: 0.84	0.82	0.98	0.95	0.97	0.87
`NC(CO)(CO)CO` [Trometamol] as listed: 0.72	0.75	0.74	0.72	0.53	0.77

Remaining list, next part:

| Structure (SMILES) | growth (C. auris AR-384; 1 µM) | growth (C. auris AR-384; 10 µM) | growth (C. auris AR-386; 1 µM) | growth (C. auris AR-386; 10 µM) | growth (C. auris AR-387; 1 µM) | growth (C. auris AR-387; 10 µM) |
| --- | --- | --- | --- | --- | --- | --- |
| CC(C)Oc1ccc2c(=O)c(-c3ccccc3)coc2c1 [Ipriflavone (Osteofix)] | 0.96 | 0.9 | 0.91 | 0.98 | 1.05 | 1.09 |
| CCOC(=O)[C@H](CCc1ccccc1)N[C@@H](C)C(=O)N1Cc2cc(OC)c(OC)cc2C[C@H]1C(=O)O [Moexipril HCl] | 0.95 | 1.02 | 1 | 1.1 | 0.94 | 0.74 |
| O=C(c1ccccc1)c1ccc2n1CCC2C(=O)O (stereo unspecified) [Ketorolac] | 0.67 | 0.67 | 0.72 | 0.74 | 0.91 | 0.98 |
| NC[C@H]1O[C@H](O[C@H]2[C@H](O)[C@@H](O[C@H]3O[C@H](CO)[C@@H](O)[C@H](N)[C@H]3O)[C@H](N)C[C@@H]2N)[C@H](N)C[C@@H]1O [Tobramycin] | 0.78 | 1.31 | 0.85 | 1.26 | 1.01 | 1.21 |
| CC(C)OC(=O)[C@H](C)N[P@](=O)(OC[C@H]1O[C@@H](n2ccc(=O)[nH]c2=O)[C@](C)(F)[C@@H]1O)Oc1ccccc1 [Sofosbuvir (PSI-7977, GS-7977)] | 0.95 | 1.17 | 0.97 | 0.74 | 0.81 | 0.67 |
| CO/N=C(\C(=O)N[C@@H]1C(=O)N2C(C(=O)[O-])=C(C[N+]3(C)CCCC3)CS[C@H]12)c1csc(N)n1 [Cefepime Dihydrochloride Monohydrate] | 0.91 | 0.81 | 0.89 | 0.58 | 0.63 | 0.77 |
| N.N.O=C([O-])C[O-].[Pt+2] [Nedaplatin] | 0.7 | 1.28 | 0.71 | 1.28 | 1.03 | 1.17 |
| C#C[C@]1(O)CC[C@H]2[C@@H]3CCc4cc(OC5CCCC5)ccc4[C@H]3CC[C@@]21C [Quinestrol] | 1.18 | 1.17 | 1.36 | 1.01 | 1.57 | 1.45 |
| COCCCN1CCC(NC(=O)c2cc(Cl)c(N)c3c2OCC3)CC1 [Prucalopride Succinate] | 1.01 | 1.09 | 1.28 | 0.74 | 0.78 | 0.91 |
| C[N+]1(C)[C@@H]2CC[C@H]1C[C@@H](OC(=O)C(O)c1ccccc1)C2 (stereo partly specified) [Homatropine Methylbromide] | 1.26 | 0.87 | 0.81 | 0.84 | 1.02 | 0.88 |
| NC(=O)[C@@H]1CSSCCC(=O)N[C@@H](CCCCN=C(N)N)C(=O)NCC(=O)N[C@@H](CC(=O)O)C(=O)N[C@@H](Cc2c[nH]c3ccccc23)C(=O)N2CCC[C@H]2C(=O)N1 [Eptifibatide Acetate] | 0.55 | 0.64 | 0.7 | 0.95 | 0.81 | 0.72 |
| CSCCNc1nc(SCCC(F)(F)F)nc2c1ncn2[C@@H]1O[C@H](COP(=O)(O)OP(=O)(O)C(Cl)(Cl)P(=O)(O)O)[C@@H](O)[C@H]1O [Cangrelor Tetrasodium] | 0.64 | 0.67 | 0.82 | 0.91 | 0.7 | 0.72 |
| CC(=O)NS(=O)(=O)c1ccc(N)cc1 [Sulfacetamide sodium salt hydrate] | 1.06 | 1.12 | 1.1 | 0.85 | 0.76 | 0.67 |
| CC1CCc2c(N3CCC(O)CC3)c(F)cc3c(=O)c(C(=O)O)cn1c23 (stereo unspecified) [Nadifloxacin] | 1.06 | 1.12 | 1.37 | 1.07 | 1.06 | 0.86 |
| CCN1CCN(C(=O)N[C@@H](C(=O)N[C@@H]2C(=O)N3C(C(=O)O)=C(CSc4nnnn4C)CS[C@H]23)c2ccc(O)cc2)C(=O)C1=O [Cefoperazone] | 1.02 | 0.75 | 0.78 | 1.21 | 0.98 | 1.02 |
| Cc1ccccc1C(OCCN(C)C)c1ccccc1 (stereo unspecified) [Orphenadrine Citrate] | 0.91 | 1.02 | 1 | 0.68 | 0.65 | 0.7 |
| O[C@H]1[C@H](O)[C@@H](O)[C@H](O)[C@@H](O)[C@H]1O [i-Inositol] | 0.78 | 0.75 | 0.73 | 0.91 | 0.83 | 1.02 |
| COc1cc2ncnc(Nc3ccc(F)c(Cl)c3)c2cc1OCCCN1CCOCC1 [Gefitinib (ZD1839)] | 0.67 | 0.51 | 0.61 | 0.72 | 0.91 | 1.09 |
| N[C@@H](CCC(=O)N[C@@H](CS)C(=O)NCC(=O)O)C(=O)O [Glutathione] | 0.61 | 1.04 | 0.88 | 1.1 | 0.78 | 1.02 |
| CC1(C)O[C@@H]2C[C@H]3[C@@H]4CCC5=CC(=O)C=C[C@]5(C)[C@H]4[C@@H](O)C[C@]3(C)[C@]2(C(=O)CO)O1 [Desonide] | 0.91 | 1.25 | 1.16 | 0.9 | 0.96 | 1.13 |
| CC(C(=O)O)c1cccc(Oc2ccccc2)c1 (stereo unspecified) [Fenoprofen calcium hydrate] | 0.76 | 0.62 | 0.73 | 0.83 | 0.69 | 0.86 |
| O=C1CCc2ccc(OCCCCN3CCN(c4cccc(Cl)c4Cl)CC3)cc2N1 [Aripiprazole] | 0.9 | 0.98 | 1.03 | 0.79 | 0.75 | 0.98 |
| Cc1c(OCC(F)(F)F)ccnc1C[S@@+]([O-])c1nc2ccccc2[nH]1 [Dexlansoprazole] | 0.91 | 1.11 | 1.11 | 1.13 | 1.04 | 0.95 |
